Laboratory results: publication PMC11336930
No constants are given. Whether binding was seen depends on the method and setting. In cells and extracts the contact can be indirect. Some binding calls cover weakened binding; strength is not graded here.

Chains of the proteins cited; added tags and fusions are not shown.
UniProt P07355: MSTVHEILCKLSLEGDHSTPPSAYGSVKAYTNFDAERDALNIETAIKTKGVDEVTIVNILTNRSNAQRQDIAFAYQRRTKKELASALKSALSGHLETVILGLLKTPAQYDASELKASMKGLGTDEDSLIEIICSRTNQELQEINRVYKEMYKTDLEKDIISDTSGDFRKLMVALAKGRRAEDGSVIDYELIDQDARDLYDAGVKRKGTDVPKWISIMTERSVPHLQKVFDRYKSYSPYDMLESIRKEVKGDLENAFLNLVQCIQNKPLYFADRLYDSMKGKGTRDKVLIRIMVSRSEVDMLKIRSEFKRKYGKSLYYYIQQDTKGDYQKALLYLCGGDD
UniProt P07947: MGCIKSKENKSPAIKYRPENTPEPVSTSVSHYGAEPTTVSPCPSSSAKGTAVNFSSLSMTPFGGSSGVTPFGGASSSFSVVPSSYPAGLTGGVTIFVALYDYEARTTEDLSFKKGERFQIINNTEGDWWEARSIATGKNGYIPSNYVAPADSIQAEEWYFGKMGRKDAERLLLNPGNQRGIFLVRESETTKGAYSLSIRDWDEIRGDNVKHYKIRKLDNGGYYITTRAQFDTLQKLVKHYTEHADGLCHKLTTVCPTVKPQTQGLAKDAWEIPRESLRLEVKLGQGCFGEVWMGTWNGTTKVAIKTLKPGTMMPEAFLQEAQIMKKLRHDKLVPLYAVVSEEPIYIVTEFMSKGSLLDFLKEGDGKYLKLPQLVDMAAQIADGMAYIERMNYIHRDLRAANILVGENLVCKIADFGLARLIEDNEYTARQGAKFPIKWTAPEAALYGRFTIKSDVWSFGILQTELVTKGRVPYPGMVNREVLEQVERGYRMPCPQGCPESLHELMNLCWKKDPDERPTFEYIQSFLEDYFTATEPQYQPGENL
UniProt P60903: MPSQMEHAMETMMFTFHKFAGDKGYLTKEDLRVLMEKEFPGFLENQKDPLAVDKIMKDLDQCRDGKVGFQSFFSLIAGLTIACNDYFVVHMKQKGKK

Columns and labels:
[1] = target: Annexin A2 (ANXA2) (human (endogenous in Cd-SV-HUC-1)) (UniProt P07355); experiment: co-IP; endogenous proteins in Cd‐SV‐HUC‐1 cells; also in cells transfected with siRNA against mtiRL (knockdown of the tsRNA)
Flag‐ANXA2 = Flag‐ANXA2 (UniProt P07355); experiment: co-IP; exogenous co‐IP of GFP‐Yes1 and Flag‐ANXA2; cells not given

Substance | binding [1] | binding (Flag‐ANXA2)
Yes proto‐oncogene 1 (Yes1) (from UniProt P07947 1-543) (enzyme) | binds | –
S100A10 (from UniProt P60903 1-97) | binds | –
GFP‐Yes1 (from UniProt P07947 1-543) (enzyme) | – | binds
